Test results from doi:10.1101/797811.
Results are given in words; binding and its absence hold for the method and conditions named. In cells and extracts the contact can be indirect. Some results given as binding are weak or reduced against the parent protein; the word gives no strength.

Sequences of proteins named here, by UniProt entry; tags and fusion partners are left off.
UniProt P02929: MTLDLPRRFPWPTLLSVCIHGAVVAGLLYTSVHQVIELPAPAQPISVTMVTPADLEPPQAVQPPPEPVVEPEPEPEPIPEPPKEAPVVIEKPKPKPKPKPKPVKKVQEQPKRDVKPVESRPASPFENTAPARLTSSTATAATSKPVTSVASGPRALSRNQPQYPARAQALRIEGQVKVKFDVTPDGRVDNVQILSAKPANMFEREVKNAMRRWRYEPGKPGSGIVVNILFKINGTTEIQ

molecular target: TonB (Escherichia coli K-12 (endogenous in RA1045, a W3110 derivative)) (UniProt P02929); experiment: cross-linking

binding | Binder
binds | ExbD (54-58Ala) (protein, UniProt P0ABV2 1-141) MAMHLNENLDDNGEMHDINVTPFIDVMLVLLIIFMVAAPLATVDVKVNLPASTAAAAARPEKPVYLSVKADNSMFIGNDPVTDETMITALNALTEGKKDTTIFFRADKTVDYETLMKVMDTLHQAGYLKIGLVGEETAKAK
no binding | ExbD (49-53Ala) (protein, UniProt P0ABV2 1-141) MAMHLNENLDDNGEMHDINVTPFIDVMLVLLIIFMVAAPLATVDVKVNAAAAASTPQPRPEKPVYLSVKADNSMFIGNDPVTDETMITALNALTEGKKDTTIFFRADKTVDYETLMKVMDTLHQAGYLKIGLVGEETAKAK
binds | ExbD (59-63Ala) (protein, UniProt P0ABV2 1-141) MAMHLNENLDDNGEMHDINVTPFIDVMLVLLIIFMVAAPLATVDVKVNLPASTSTPQPAAAAAVYLSVKADNSMFIGNDPVTDETMITALNALTEGKKDTTIFFRADKTVDYETLMKVMDTLHQAGYLKIGLVGEETAKAK
no binding | ExbD (44-48Ala) (protein, UniProt P0ABV2 1-141) MAMHLNENLDDNGEMHDINVTPFIDVMLVLLIIFMVAAPLATVAAAAALPASTSTPQPRPEKPVYLSVKADNSMFIGNDPVTDETMITALNALTEGKKDTTIFFRADKTVDYETLMKVMDTLHQAGYLKIGLVGEETAKAK
